Test results taken from the supplement of paper PMC10849652.
The other results are listed elsewhere or left out.

Sequences of proteins named here, by UniProt entry; tags and fusion partners are left off. A change or cut given only in a name is not applied to a line headed by its entry.
UniProt Q8NDF8: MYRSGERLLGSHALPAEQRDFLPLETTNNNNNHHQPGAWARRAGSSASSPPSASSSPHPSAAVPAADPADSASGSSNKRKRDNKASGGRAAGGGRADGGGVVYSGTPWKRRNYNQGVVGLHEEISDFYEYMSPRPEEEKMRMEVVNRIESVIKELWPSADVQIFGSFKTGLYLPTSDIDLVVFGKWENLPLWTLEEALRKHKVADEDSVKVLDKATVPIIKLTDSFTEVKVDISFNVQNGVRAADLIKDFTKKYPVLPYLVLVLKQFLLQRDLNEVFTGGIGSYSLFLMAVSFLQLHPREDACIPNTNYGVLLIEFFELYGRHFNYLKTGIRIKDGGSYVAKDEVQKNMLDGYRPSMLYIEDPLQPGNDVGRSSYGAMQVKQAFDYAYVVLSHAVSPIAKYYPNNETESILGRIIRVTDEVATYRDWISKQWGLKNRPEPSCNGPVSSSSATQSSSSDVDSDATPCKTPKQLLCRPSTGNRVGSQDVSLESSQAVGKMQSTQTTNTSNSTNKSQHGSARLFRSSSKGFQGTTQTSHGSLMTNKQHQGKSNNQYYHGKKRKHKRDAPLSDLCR
UniProt Q9Y4I5: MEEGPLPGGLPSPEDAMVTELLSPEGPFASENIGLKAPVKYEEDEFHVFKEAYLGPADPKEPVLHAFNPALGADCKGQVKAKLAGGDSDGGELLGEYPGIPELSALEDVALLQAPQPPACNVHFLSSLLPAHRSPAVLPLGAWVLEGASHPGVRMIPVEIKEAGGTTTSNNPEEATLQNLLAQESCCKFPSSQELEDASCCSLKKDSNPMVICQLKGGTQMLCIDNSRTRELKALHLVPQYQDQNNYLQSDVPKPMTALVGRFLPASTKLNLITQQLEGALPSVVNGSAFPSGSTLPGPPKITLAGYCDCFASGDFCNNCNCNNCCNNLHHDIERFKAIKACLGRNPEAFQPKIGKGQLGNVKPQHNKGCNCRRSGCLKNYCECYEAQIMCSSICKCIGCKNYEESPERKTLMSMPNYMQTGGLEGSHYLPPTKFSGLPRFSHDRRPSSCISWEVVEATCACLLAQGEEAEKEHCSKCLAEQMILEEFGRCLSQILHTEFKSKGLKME
UniProt P21731: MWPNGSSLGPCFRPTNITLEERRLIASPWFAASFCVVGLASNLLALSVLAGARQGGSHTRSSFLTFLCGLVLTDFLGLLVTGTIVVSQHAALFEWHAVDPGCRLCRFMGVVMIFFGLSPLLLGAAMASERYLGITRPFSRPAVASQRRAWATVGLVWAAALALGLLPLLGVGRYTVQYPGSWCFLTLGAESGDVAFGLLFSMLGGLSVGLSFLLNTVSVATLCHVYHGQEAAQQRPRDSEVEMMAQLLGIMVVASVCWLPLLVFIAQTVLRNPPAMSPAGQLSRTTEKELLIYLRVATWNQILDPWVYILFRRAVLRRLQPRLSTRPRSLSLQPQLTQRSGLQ
UniProt Q96QE5: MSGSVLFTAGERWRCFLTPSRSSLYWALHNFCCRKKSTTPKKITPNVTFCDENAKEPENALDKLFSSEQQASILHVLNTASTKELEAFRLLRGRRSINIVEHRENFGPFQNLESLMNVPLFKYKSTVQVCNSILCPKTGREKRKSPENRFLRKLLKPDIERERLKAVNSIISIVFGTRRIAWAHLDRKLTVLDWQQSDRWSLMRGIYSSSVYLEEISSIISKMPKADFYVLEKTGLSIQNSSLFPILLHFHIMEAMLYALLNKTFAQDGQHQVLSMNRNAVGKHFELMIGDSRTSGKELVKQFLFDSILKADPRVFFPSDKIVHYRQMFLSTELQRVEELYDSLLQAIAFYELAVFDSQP
UniProt Q9H6P5: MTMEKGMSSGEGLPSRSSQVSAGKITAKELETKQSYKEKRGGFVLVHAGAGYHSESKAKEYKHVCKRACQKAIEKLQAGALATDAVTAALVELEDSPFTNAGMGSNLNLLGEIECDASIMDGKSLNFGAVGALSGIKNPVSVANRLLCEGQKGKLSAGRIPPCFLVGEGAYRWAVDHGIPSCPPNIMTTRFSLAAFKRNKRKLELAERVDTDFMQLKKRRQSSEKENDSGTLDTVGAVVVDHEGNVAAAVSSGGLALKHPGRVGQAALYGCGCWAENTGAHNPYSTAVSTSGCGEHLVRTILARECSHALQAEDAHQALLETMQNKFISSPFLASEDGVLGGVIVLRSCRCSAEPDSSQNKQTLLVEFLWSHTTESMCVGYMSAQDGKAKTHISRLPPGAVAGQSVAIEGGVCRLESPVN
UniProt Q9NUW8, whole entry, looked up: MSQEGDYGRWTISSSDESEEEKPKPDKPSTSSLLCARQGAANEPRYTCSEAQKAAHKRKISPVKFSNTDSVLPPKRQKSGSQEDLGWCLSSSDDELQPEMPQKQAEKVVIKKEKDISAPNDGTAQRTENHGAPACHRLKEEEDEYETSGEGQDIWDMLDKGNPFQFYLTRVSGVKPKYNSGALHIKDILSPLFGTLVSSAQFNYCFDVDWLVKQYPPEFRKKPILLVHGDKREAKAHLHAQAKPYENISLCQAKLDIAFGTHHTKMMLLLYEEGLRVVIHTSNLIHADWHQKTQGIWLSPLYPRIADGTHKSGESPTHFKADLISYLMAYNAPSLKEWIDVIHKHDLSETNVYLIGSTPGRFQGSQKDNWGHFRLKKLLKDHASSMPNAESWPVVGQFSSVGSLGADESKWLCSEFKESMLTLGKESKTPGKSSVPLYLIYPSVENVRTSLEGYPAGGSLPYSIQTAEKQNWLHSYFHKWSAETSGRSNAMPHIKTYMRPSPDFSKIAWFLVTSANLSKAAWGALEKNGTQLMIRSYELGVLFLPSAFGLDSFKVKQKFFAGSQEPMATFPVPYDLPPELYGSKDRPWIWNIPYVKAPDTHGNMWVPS
UniProt P20226, whole entry, looked up: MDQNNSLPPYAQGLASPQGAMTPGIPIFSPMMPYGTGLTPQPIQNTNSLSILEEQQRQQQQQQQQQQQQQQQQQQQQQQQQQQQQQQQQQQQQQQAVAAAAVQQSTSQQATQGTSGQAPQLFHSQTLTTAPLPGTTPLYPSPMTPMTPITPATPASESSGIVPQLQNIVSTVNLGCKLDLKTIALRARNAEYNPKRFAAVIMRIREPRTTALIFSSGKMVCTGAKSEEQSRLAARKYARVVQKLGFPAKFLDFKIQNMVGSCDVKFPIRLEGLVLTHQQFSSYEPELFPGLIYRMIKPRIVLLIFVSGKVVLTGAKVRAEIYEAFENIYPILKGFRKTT
UniProt P20061: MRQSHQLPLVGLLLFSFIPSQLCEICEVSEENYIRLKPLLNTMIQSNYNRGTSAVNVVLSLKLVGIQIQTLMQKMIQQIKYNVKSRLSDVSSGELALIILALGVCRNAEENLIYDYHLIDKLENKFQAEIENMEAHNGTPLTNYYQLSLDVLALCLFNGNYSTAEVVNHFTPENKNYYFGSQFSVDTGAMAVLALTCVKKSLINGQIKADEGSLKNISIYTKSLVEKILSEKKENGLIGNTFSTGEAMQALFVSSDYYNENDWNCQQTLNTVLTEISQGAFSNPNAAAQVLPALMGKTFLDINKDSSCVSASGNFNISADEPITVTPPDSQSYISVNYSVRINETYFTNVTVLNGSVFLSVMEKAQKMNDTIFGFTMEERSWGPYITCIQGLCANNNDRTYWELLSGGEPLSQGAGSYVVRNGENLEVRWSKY
UniProt Q7Z6L1: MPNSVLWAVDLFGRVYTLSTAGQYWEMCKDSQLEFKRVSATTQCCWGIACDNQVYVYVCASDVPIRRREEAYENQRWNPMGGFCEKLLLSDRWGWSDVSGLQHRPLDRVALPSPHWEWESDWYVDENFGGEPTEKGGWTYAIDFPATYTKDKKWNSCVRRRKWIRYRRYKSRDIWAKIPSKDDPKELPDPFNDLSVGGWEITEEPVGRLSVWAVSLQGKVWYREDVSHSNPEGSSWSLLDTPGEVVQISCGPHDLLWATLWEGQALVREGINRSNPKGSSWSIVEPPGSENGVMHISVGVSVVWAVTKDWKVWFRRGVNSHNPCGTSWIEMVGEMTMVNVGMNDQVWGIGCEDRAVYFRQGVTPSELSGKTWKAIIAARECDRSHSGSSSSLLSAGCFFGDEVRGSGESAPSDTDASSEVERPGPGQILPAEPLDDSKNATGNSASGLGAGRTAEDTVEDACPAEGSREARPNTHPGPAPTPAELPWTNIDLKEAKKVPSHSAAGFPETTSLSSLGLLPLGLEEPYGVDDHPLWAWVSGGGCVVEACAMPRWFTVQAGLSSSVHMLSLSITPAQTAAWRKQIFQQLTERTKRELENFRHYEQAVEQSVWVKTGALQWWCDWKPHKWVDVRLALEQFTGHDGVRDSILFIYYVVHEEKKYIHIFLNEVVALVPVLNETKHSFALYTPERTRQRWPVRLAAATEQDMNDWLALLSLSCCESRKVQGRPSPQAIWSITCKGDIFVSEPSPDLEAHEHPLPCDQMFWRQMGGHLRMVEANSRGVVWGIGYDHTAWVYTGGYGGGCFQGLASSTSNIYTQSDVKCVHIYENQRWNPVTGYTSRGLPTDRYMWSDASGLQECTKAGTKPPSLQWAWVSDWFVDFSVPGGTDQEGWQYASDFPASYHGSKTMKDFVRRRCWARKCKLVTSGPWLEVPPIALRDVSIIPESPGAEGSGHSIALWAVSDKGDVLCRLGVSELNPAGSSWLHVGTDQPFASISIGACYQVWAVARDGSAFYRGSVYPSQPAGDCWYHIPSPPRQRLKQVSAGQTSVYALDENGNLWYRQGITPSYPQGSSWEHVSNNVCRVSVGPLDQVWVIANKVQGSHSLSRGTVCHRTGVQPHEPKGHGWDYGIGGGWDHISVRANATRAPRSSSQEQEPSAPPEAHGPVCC
UniProt Q15561, whole entry, looked up: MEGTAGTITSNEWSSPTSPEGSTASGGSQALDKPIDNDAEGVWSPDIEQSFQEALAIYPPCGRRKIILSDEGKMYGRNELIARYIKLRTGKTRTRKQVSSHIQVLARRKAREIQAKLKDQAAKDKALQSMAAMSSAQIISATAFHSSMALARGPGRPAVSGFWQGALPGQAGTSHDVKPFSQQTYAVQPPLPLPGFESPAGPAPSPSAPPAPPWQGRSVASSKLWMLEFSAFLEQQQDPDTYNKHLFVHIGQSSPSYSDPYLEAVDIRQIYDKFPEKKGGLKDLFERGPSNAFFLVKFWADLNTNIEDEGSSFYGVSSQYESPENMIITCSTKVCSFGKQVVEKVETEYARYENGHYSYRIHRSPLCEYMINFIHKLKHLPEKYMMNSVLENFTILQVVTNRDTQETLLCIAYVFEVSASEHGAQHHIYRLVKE
UniProt Q13569: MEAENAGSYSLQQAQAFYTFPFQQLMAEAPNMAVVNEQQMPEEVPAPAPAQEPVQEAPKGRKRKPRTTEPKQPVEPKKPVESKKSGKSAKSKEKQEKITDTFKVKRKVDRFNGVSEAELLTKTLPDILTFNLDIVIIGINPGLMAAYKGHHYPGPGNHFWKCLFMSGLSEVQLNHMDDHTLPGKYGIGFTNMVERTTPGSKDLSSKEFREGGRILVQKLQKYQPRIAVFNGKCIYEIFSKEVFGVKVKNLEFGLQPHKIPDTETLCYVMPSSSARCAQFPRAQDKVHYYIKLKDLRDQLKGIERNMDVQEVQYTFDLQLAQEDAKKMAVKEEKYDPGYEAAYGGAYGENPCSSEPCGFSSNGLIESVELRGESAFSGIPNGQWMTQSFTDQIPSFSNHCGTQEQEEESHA
UniProt P19484: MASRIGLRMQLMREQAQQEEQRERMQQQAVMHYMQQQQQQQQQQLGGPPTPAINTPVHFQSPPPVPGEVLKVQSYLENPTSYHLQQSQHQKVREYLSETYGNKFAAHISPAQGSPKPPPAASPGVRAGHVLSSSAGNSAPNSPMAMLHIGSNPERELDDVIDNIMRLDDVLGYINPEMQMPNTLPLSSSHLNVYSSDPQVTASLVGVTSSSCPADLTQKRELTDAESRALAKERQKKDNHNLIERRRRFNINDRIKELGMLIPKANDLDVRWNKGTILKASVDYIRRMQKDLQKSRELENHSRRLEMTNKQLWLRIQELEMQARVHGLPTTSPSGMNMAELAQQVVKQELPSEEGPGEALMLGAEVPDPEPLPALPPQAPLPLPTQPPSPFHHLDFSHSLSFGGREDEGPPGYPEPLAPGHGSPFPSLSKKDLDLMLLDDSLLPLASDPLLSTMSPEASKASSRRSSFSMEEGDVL
UniProt P54274: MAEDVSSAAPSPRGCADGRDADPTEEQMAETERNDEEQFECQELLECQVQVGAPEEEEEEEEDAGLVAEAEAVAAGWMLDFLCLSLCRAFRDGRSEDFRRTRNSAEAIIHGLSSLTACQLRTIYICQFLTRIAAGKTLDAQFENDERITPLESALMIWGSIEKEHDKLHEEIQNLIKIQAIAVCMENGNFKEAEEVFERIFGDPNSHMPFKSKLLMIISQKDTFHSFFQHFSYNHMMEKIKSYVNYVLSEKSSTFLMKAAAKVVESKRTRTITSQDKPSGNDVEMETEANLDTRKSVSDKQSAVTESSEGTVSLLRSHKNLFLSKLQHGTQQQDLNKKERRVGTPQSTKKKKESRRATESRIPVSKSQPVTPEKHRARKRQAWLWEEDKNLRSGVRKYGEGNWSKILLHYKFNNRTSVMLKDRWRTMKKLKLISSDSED

Assays:
Experiment in all cases: log2 fold change, soluble protein after heating vs DMSO (PISA); higher = thermal stabilisation; K562 lysate, 10 uM; active = over 0.2 and 3.5 SD of the protein, either way, in both replicates (recomputed)
[1] = compound: C#Cc1cccc(Nc2ncnc3cc(OCCOC)c(OCCOC)cc23)c1 [erlotinib]
Outline: (§1)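 A 30 min treatment with 10 μM compound was applied to crude K562 extract at 1 mg/mL protein in PBS pH 7.4 with 1 mM MgCl2. Heating for 3 min spanned 48°C-58°C, after which aliquots were pooled, adjusted to 0.5% NP-40 at 4°C and spun at 21,000xg for 90 min. TMTpro 16plex LC-MS/MS of the supernatant, with channel sums equalised, gave values recorded as log-two fold change in thermal stability against solvent controls, from duplicates.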

[2] = compound: C1=CC(=CC=C1C2=NC3=C(N2)C=C(C=C3)C(=O)N)OC4=CC=C(C=C4)Cl
Outline: as §1

[3] = compound: C1=CC2=NC=CN=C2C=C1/C=C/3\C(=O)NC(=O)S3
Outline: as §1

[4] = compound: C1=CC=C(C=C1)C2=NC(=C(N2)C3=CC=NC=C3)C4=CC(=C(C=C4)Cl)O
Outline: as §1

[5] = compound: C1COCCN1CCN2C3=CC=CC=C3N=C2NC(=O)C4=CC(=CC=C4)[N+](=O)[O-] [IRAK-1-4 Inhibitor I]
Outline: as §1

[6] = compound: C=CC(=O)N1CCC[C@@H](n2nc(-c3ccc(Oc4ccccc4)cc3)c3c(N)ncnc32)C1 [ibrutinib]
Outline: as §1

[7] = compound: CC(C)(C)Cn1c(N)nc2ccc(-c3[nH]c(C(C)(C)C)nc3-c3ccc(F)cc3)nc21 [ralimetinib]
Outline: as §1

[8] = compound: CC(C)(O)CC(=O)NCCn1ccc2ncnc(Nc3ccc(Oc4cccc(C(F)(F)F)c4)c(Cl)c3)c21
Outline: as §1

[9] = compound: CC(C)C1=C2N=C(C=C(N2N=C1)NCC3=CC=CC=C3)NCCCCCCN
Outline: as §1

[10] = compound: CC1=C(C(CC(=O)N1)C2=CC=C(C=C2)C(F)(F)F)C(=O)NC3=C(C=C4C(=C3)C=NN4)F
Outline: as §1

[11] = compound: CC1=C(C=C(C=C1)NC(=O)C2=CC(=CC=C2)C(C)(C)C#N)NC3=CC4=C(C=C3)N=CN(C4=O)C
Outline: as §1

[12] = compound: CC1=C(C=C(C=C1)NC(=O)C2=CC(=CC=C2)N(C)C)NC(=O)C3=CC=C(C=C3)O
Outline: as §1

[13] = compound: C/C(=N\NC(=O)C1=CC(=CC=C1)S(=O)(=O)N2CCOCC2)/C3=C(C=CC(=C3)Cl)O
Outline: as §1

[14] = compound: C1=CC2=C(C=CC(=C2)/C=C\3/C(=O)NC(=NCC4=CC=CS4)S3)N=C1
Outline: as §1

[15] = compound: C1=CC=C2C(=C1)C3=NNC4=CC=CC(=C43)C2=O
Outline: as §1

[16] = compound: C1CCN(C1)C(=O)NC2=CC=CC(=C2)NC3=NC=C(C(=N3)NCCC4=CN=CN4)Br
Outline: as §1

[17] = compound: C1CN(CCC1(CC2=CC=C(C=C2)Cl)N)C3=NC=NC4=C3C=CN4
Outline: as §1

[18] = compound: CC1=C(C2=C(C=C1)C(=O)C3=CC=CC=C3N2CCCN)C
Outline: as §1

[19] = compound: CC(=O)c1cnc2ccc(-c3cc(Cl)c(O)c(Cl)c3)nc2c1N[C@H]1CC[C@H](CN(C)C)CC1
Outline: as §1

[20] = compound: CC1=CC=C(C=C1)SC2=C3C=C(SC3=CN=C2)C(=O)N
Outline: as §1

Measured: log2 fold change

TENT4B isoform 5 (UniProt Q8NDF8)
inactive: [1] -0.114 | [2] -0.327 | [3] -0.121 | [4] -0.001 | [5] -0.047 | [6] -0.27 | [7] 0.089 | [8] -0.012 | [9] 0.202 | [10] 0.146 | [11] 0.06 | [12] -0.05

TESMIN (UniProt Q9Y4I5)
inactive: [1] -0.068 | [13] 0.148 | [2] -0.125 | [14] -0.122 | [4] -0.015 | [15] 0.171 | [16] -0.105 | [17] -0.02 | [5] 0.12 | [7] 0.038 | [8] 0.108 | [9] 0.062 | [18] 0.123 | [11] -0.021 | [12] 0.003

TBXA2R (UniProt P21731)
inactive: [1] 0.23 | [2] -0.124 | [3] -0.035 | [4] 0.043 | [5] 0.058 | [6] 0.176 | [7] -0.004 | [8] -0.151 | [9] 0 | [11] 0.005 | [12] -0.094

TEFM (UniProt Q96QE5)
inactive: [1] 0.064 | [13] -0.029 | [2] 0.069 | [14] -0.126 | [4] -0.035 | [15] 0.071 | [16] 0.163 | [17] -0.026 | [5] 0.033 | [19] -0.081 | [7] -0.014 | [8] -0.17 | [9] 0.054 | [10] -0.006 | [18] 0.005 | [11] 0.032 | [12] 0.014 | [20] -0.081

Two entries drawn at random from the list so far, as already listed:
TBXA2R (UniProt P21731)
inactive: [1] 0.23 | [2] -0.124 | [3] -0.035 | [4] 0.043 | [5] 0.058 | [6] 0.176 | [7] -0.004 | [8] -0.151 | [9] 0 | [11] 0.005 | [12] -0.094

TESMIN (UniProt Q9Y4I5)
inactive: [1] -0.068 | [13] 0.148 | [2] -0.125 | [14] -0.122 | [4] -0.015 | [15] 0.171 | [16] -0.105 | [17] -0.02 | [5] 0.12 | [7] 0.038 | [8] 0.108 | [9] 0.062 | [18] 0.123 | [11] -0.021 | [12] 0.003

(next part)

TASP1 (UniProt Q9H6P5)
inactive: [1] -0.013 | [2] -0.017 | [3] -0.102 | [4] -0.022 | [16] -0.062 | [17] 0.092 | [5] 0.055 | [6] 0.005 | [19] 0.04 | [7] -0.073 | [8] -0.062 | [9] 0.028 | [10] 0.089 | [18] -0.114 | [11] 0.009 | [12] -0.012 | [20] 0.067

TCF20 (UniProt Q9UGU0)
inactive: [1] -0.04 | [2] -0.001 | [3] 0.039 | [6] -0.025 | [19] 0.128 | [9] -0.317 | [18] -0.212 | [11] -0.004 | [20] -0.166

TDP1 (UniProt Q9NUW8)
inactive: [1] 0.061 | [13] -0.024 | [14] 0.076 | [3] -0.011 | [4] -0.017 | [15] 0.029 | [16] -0.036 | [17] -0.037 | [5] 0.011 | [6] 0.077 | [19] 0.03 | [7] -0.118 | [8] -0.012 | [9] -0.031 | [10] 0.012 | [18] -0.078 | [11] -0.019 | [12] -0.01 | [20] -0.017

TBP (UniProt P20226)
inactive: [1] 0.01 | [2] 0.008 | [3] 0.043 | [4] 0.001 | [16] -0.089 | [17] 0.145 | [5] 0.011 | [6] 0.051 | [19] 0.001 | [7] 0.033 | [8] -0.103 | [9] -0.006 | [10] 0.594 | [18] -0.081 | [11] 0.028 | [12] -0.018 | [20] 0.031

TCN1 (UniProt P20061)
inactive: [1] -0.061 | [2] 0.066 | [3] -0.036 | [4] 0.017 | [16] -0.082 | [17] 0.291 | [5] 0 | [6] 0.004 | [7] 0.031 | [8] -0.164 | [9] 0.036 | [10] 1.43 | [11] -0.131 | [12] -0.215

TECPR1 isoform 4 (UniProt Q7Z6L1)
inactive: [1] 0.007 | [2] 0.053 | [3] 0.373 | [6] -0.019 | [19] 0.128 | [9] -0.075 | [18] -0.001 | [20] 0.12

TEAD4 (UniProt Q15561)
inactive: [1] 0.028 | [2] 0.025 | [3] 0.058 | [6] 0.142 | [9] -0.109

TDG (UniProt Q13569)
inactive: [13] 0.015 | [14] -0.033 | [3] -0.08 | [4] 0.005 | [15] 0.004 | [16] 0.031 | [17] -0.012 | [5] 0.067 | [6] 0.017 | [7] -0.012 | [8] 0.042 | [10] 0.049 | [18] 0.034 | [11] -0.066 | [12] -0.114

TCF3 (UniProt X6REB3)
inactive: [13] -0.006 | [14] -0.208 | [15] -0.192

TFEB (UniProt P19484)
inactive: [13] -0.174 | [14] -0.042 | [15] 0.106 | [10] 0.01 | [11] 0.071

TERF1 (UniProt P54274)
inactive: [13] -0.031 | [14] 0.029 | [15] -0.037 | [16] -0.058 | [17] -0.081 | [10] 0.048 | [11] 0.035
